{
  "source": "patent US5185149A",
  "about": "“Methods for thrombolytic therapy” (Merck & Co., Inc., priority 1990, dated 1993)",
  "test_system": "blood clots (whole blood or plasma clot labelled with 125I-fibrinogen)",
  "assay": "in vitro clot lysis assay (release of 125I-fibrin-derived fragments, TPA-initiated lysis)",
  "assay_type": "biochemical",
  "details": "no exogenous plasminogen; TPA at physiological and pharmacological levels; inhibitor concentration not given; FIG. 3",
  "method": "In the assay, whole blood or plasma is charged with ^125 I-fibrinogen Thrombin is added to initiate clot formation and subsequently incubated for 2 hours to complete the cross-linking by endogenous Factor XIII. Factor XIIIa inhibitor is added prior to clot initiation or at various times during the 2-hour incubation. At the end of this period, the labelled clot is washed and lysis is initiated by exogenous tissue plasminogen activator (TPA). Exogenous plasminogen is employed in some experiments Endogenous plasminogen is used for others. Clot dissolution as a function of time is monitored by the release of solubilized ^125 I-fibrin-derived fragments.\nIn FIGS. 1 and 2, the open symbols indicate absence of cerulenin and the closed symbols indicate the presence of 200μM cerulenin at the time of clot formation. Clot lysis is conducted in buffer, pH 7.5; 5 ng/mL TPA represents approximate physiologic concentration. 50 to […] represents pharmacologic concentration range. […] FIG. 2 studies employed glu-plasminogen levels at approximately 10 percent physiologic level ([…]).",
  "note": "At least one structure is not confirmed: it was looked up by name or label, or the drawing left a doubt.",
  "data": [
    {"smiles": "CC(=O)CSc1n[n+]2c(C)csc2s1", "note": "[Thiadiazolium perchlorate compound, 2-(1-acetonylthio)-5-methylthiazolo(2,3-b)-1,3,4-thiadiazolium perchlorate]", "values": [
      {"measurement": "rates and extents of clot lysis", "result": "enhanced rates and extents of lysis"}
    ]}
  ]
}
